Repeats are few or missing, and single values can be far off.
Compound: [O-][N+](C(C1=C(C(O)=C2)NC(C(C=C3)=CC=C3Cl)C4C1C=CC4)=C2Cl)=O
Test: melting temperature shift (compound 7 minus DMSO); higher = compound stabilises the protein
Conditions: 10 µM
Protocol: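 Thermal proteome profiling (TMT mass spectrometry) in intact DAOY medulloblastoma cells or DAOY lysates treated with 10 µM compound 7 or DMSO, heated at 10 temperatures from 40.5 to 73.8 °C for 3 min. Melting curves were fitted with the Bioconductor TPP package, and the melting point difference between compound and vehicle is reported per protein (single curve per condition).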

Protein sequences, listed by entry. Tags and fused reporters are not part of them. Lines headed by an entry give the natural chain unless they say otherwise; changes in a name come on top.
UniProt Q14694, whole entry: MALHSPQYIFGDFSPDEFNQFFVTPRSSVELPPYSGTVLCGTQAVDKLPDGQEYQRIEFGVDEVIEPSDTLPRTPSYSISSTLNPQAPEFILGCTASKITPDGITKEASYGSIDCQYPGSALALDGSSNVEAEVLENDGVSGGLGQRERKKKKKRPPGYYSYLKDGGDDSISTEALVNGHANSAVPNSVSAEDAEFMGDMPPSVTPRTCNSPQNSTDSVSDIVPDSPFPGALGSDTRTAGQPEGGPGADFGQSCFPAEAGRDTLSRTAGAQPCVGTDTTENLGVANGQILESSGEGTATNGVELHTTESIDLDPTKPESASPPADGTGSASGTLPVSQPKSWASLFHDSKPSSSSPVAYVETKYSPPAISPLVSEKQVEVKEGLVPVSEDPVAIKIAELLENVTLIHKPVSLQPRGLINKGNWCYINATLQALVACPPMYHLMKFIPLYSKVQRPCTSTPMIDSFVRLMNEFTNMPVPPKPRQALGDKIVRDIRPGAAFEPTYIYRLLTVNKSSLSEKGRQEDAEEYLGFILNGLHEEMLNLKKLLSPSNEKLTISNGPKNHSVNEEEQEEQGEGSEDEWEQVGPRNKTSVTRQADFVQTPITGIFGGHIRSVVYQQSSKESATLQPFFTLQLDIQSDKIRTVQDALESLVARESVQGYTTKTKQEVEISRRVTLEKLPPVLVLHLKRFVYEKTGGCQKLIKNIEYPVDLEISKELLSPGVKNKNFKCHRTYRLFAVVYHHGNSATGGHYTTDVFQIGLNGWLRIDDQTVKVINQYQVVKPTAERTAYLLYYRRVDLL
UniProt Q9NQ29: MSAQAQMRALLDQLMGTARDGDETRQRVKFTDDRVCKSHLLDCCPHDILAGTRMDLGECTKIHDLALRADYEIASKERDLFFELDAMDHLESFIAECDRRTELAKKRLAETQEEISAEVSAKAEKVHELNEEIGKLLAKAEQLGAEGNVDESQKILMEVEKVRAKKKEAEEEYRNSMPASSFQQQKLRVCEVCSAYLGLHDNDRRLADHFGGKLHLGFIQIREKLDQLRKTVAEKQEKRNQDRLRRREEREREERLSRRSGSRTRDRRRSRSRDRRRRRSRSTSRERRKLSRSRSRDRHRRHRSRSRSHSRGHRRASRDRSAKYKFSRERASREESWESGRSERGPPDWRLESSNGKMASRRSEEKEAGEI
UniProt P49458: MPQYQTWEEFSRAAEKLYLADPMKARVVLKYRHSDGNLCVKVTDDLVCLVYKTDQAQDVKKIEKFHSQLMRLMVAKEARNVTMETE
UniProt Q8N2E6: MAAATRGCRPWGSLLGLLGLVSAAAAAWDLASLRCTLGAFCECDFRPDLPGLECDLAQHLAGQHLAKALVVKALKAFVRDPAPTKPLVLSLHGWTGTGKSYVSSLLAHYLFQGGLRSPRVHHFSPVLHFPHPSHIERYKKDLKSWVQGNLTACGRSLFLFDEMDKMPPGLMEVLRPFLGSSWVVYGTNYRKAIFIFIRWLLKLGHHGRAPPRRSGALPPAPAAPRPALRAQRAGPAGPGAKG
UniProt Q9H000: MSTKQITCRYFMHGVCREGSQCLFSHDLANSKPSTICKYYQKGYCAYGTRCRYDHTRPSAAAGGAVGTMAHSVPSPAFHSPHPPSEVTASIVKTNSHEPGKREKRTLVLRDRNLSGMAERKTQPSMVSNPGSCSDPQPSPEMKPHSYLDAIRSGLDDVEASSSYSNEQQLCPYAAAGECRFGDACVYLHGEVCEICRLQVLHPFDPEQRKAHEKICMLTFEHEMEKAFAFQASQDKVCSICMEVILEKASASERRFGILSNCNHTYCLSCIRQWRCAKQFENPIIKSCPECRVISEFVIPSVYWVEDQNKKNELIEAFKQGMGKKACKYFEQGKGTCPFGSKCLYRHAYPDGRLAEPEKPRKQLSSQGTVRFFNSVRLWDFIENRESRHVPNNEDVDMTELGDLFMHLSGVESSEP
UniProt Q5SW96: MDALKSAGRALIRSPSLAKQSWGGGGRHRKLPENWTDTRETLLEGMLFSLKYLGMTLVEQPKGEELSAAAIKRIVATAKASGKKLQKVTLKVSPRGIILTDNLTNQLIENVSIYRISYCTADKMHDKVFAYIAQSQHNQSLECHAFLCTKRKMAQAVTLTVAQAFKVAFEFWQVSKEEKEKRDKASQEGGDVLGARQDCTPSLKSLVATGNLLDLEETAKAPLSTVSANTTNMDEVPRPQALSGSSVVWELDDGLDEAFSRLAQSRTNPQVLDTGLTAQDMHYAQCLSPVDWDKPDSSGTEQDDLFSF
UniProt Q9Y490: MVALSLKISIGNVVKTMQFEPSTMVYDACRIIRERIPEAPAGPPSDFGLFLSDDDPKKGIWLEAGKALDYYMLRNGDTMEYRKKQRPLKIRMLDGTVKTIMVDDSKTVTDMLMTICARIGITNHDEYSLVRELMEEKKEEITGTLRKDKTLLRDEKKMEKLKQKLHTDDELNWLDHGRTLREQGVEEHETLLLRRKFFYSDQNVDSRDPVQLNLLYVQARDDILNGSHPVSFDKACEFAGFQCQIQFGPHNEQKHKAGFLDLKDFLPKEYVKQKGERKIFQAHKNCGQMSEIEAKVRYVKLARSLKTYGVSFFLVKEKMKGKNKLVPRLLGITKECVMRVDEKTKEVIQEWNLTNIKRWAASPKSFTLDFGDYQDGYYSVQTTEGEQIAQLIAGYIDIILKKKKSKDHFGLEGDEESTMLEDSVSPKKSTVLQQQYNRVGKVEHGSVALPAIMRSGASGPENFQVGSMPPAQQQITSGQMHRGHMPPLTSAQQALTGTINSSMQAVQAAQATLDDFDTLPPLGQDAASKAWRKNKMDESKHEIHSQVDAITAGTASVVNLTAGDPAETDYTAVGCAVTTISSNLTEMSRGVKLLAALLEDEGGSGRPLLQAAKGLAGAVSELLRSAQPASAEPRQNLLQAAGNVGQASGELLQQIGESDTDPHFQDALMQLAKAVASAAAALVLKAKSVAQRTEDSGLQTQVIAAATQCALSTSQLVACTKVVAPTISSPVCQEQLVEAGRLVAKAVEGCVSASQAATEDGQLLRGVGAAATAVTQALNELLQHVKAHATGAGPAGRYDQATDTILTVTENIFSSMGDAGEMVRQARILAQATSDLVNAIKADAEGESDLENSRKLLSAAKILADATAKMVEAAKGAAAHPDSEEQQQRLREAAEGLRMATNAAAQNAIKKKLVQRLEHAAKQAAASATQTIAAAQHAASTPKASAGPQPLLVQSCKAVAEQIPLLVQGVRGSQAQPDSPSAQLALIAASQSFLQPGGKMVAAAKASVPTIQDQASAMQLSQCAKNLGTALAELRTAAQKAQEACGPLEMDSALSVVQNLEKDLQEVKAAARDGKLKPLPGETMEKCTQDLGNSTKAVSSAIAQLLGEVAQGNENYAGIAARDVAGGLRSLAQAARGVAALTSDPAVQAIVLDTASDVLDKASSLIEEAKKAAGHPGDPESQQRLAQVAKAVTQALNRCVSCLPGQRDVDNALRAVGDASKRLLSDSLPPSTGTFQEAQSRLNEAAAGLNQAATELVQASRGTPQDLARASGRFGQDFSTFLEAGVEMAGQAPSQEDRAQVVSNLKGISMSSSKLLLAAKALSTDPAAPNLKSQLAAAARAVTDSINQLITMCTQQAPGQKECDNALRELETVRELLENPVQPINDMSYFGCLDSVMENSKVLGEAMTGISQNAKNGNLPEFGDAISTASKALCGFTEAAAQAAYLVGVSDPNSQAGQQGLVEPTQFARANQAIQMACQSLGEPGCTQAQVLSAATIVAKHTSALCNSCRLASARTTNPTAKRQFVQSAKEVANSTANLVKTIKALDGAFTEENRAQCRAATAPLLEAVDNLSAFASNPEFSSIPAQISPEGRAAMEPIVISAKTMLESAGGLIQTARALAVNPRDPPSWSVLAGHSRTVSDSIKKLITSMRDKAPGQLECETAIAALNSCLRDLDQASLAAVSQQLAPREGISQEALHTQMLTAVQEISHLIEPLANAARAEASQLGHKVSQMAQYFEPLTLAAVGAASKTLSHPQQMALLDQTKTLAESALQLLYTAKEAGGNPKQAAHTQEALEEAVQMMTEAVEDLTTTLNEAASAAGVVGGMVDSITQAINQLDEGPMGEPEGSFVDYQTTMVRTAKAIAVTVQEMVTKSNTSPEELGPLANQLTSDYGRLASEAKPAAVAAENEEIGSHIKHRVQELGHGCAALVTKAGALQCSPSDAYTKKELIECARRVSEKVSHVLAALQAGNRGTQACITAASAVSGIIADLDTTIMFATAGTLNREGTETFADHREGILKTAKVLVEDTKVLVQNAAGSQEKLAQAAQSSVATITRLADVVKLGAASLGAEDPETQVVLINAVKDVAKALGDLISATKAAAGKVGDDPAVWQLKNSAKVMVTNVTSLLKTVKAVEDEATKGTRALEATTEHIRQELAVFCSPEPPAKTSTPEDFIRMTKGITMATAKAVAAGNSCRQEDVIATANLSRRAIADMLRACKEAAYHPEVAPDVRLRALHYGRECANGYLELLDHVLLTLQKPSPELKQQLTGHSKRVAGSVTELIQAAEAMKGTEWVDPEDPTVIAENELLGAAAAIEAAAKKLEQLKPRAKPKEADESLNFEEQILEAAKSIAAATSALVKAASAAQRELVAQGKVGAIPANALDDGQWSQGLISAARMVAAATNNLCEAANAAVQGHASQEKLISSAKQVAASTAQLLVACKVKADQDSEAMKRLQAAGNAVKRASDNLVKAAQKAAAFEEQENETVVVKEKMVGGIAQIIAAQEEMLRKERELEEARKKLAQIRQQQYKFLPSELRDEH
UniProt Q9UPQ9, whole entry: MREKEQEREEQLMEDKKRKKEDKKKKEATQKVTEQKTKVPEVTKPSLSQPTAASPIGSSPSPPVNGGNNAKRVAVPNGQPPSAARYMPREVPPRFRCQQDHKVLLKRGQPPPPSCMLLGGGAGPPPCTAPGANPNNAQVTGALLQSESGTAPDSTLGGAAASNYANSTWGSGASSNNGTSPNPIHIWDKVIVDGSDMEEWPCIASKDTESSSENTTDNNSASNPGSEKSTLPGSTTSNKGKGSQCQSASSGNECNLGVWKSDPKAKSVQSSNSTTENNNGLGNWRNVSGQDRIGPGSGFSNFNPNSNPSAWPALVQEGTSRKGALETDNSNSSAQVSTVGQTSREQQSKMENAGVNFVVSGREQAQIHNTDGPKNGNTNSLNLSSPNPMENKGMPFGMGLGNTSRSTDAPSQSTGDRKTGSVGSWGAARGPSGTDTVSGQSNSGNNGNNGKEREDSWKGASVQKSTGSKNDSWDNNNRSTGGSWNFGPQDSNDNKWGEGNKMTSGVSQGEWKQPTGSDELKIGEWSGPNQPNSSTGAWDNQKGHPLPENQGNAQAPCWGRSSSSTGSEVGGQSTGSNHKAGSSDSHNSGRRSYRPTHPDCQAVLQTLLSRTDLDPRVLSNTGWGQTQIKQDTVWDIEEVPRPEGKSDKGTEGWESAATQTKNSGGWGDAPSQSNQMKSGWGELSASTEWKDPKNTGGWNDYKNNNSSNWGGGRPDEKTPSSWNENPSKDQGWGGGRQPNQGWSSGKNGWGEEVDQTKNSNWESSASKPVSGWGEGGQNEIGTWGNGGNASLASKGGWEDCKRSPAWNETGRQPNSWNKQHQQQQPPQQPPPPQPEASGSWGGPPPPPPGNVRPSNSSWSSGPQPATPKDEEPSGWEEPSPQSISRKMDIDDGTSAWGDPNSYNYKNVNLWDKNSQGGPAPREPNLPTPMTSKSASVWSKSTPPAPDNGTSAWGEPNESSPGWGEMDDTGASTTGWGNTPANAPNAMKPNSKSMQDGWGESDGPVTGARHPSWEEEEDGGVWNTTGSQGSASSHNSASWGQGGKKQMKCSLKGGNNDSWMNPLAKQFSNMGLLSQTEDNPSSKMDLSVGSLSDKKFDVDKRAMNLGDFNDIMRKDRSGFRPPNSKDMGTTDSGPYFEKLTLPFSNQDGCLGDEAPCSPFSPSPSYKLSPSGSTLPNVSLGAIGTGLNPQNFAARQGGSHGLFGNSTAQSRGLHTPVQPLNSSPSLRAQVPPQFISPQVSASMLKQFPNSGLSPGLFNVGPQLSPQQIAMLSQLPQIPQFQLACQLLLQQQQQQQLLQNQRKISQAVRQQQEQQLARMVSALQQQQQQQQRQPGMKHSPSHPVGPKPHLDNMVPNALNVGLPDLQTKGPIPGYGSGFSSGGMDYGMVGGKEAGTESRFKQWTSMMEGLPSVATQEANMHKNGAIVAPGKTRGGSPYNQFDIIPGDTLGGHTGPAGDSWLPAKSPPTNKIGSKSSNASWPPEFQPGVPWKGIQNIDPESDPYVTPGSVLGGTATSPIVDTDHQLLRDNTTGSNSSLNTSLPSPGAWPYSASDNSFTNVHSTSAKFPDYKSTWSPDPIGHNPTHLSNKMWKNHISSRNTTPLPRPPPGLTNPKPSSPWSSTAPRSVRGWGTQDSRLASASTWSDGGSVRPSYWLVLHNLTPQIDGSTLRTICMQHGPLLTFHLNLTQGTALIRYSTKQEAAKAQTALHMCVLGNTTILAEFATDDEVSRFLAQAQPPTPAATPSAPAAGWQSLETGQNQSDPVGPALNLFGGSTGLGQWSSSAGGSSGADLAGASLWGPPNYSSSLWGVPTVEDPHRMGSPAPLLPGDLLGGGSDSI

[1] = system: intact DAOY cells, treatment time: 90 min, 37 °C
[2] = system: DAOY cell lysate, treatment time: 20 min, 4 °C

Row | Target | melting temperature shift [1] [°C] | melting temperature shift [2] [°C]
1 | UniProt Q9ULE0 | 0.474 | –
2 | UniProt P50993 | -0.425 | –
3 | USP10 (UniProt Q14694) | -0.0357 | 0.0155
4 | FAHD1 (UniProt Q6P587) | – | -1.39
5 | BRD2 (UniProt P25440) | -1.18 | 1.25
6 | VTI1B (UniProt Q9UEU0) | – | -0.968
7 | GTPBP10 (UniProt A4D1E9) | -0.691 | -1.23
8 | UniProt O60733 | -0.544 | –
9 | UniProt Q86UA6 | -0.0633 | –
10 | RNF25 (UniProt Q96BH1) | -0.0472 | 0.122
11 | GTF2E2 (UniProt P29084) | -2.16 | -0.754
12 | DERL1 (UniProt Q9BUN8) | -0.348 | 1.61
13 | SLC38A1 (UniProt Q9H2H9) | -2.22 | -0.794
14 | CAMK2G (UniProt Q13555) | -1.9 | 0.855
15 | GNAO1 (UniProt P09471) | -0.946 | 0.239
16 | ALAD (UniProt P13716) | – | 3.24
17 | NSUN6 (UniProt Q8TEA1) | 0.908 | -0.449
18 | RAP2C (UniProt Q9Y3L5) | -0.09 | 2.75
19 | CAMLG (UniProt P49069) | -0.792 | 0.561
20 | UniProt Q96L21 | -0.566 | –
21 | UniProt P17405 | -2.03 | –
22 | TBK1 (UniProt Q9UHD2) | -0.87 | -0.931

Row | Target | melting temperature shift [1] [°C] | melting temperature shift [2] [°C]
23 | RPS6KA5 (UniProt O75582) | -0.134 | -0.398
24 | POMGNT1 (UniProt Q8WZA1) | – | -0.845
25 | UniProt Q6ZQX7 | – | 3.93
26 | YBX1 (UniProt P67809) | – | 0.538
27 | UQCR10 (UniProt Q9UDW1) | -0.849 | 1.08
28 | UniProt O14556 | -0.26 | –
29 | CRBN (UniProt Q96SW2) | 1.47 | -1.75
30 | RBMX (UniProt P38159) | -0.678 | 1.32
31 | UniProt Q8N5W9 | – | -0.317
32 | UniProt O95786 | 1.39 | 0.379
33 | LUC7L (UniProt Q9NQ29) | -1.48 | -0.616
34 | UTP6 (UniProt Q9NYH9) | – | 0.815
35 | SRP9 (UniProt P49458) | 0.47 | -1.49
36 | PPP1R10 (UniProt Q96QC0) | -1.01 | -0.276
37 | UniProt Q9HD40 | – | -1.65
38 | RAB29 (UniProt O14966) | -1.16 | -1.45
39 | UniProt P0C1Z6 | 4.34 | 0.117
40 | MLST8 (UniProt Q9BVC4) | 0.0421 | -0.973
41 | MLLT4 (UniProt P55196) | -0.219 | -0.28
42 | ETF1 (UniProt P62495) | -0.617 | -0.299
43 | KDSR (UniProt Q06136) | -0.705 | –
44 | USP5 (UniProt P45974) | -0.263 | -0.351

Row | Target | melting temperature shift [1] [°C] | melting temperature shift [2] [°C]
45 | UniProt Q8N2H4 | – | 1.48
46 | UniProt Q969J3 | – | -0.35
47 | FBXO38 (UniProt Q6PIJ6) | 0.201 | -0.514
48 | TNKS1BP1 (UniProt Q9C0C2) | – | -3.46
49 | TXNRD1 (UniProt Q16881) | 0.247 | -1.03
50 | UniProt Q8N5G0 | – | 2.1
51 | CLN6 (UniProt Q9NWW5) | – | 0.51
52 | UniProt Q8N2E6 | -0.636 | –
53 | MKRN2 (UniProt Q9H000) | 2.35 | -0.473
54 | DPY19L1 (UniProt Q2PZI1) | -3.24 | -1.07
55 | UniProt Q5SW96 | – | -1.48
56 | GTF3C3 (UniProt Q9Y5Q9) | -2.05 | 2.07
57 | TLN1 (UniProt Q9Y490) | -0.323 | -0.0896
58 | UniProt Q5T0B9 | -1.02 | –
59 | UniProt Q92784 | – | -2.06
60 | PALLD (UniProt Q8WX93) | -0.385 | -0.144
61 | MAPRE3 (UniProt Q9UPY8) | -0.0617 | -0.843
62 | DNAJA1 (UniProt P31689) | 0.338 | -0.0227
63 | GDAP2 (UniProt Q9NXN4) | 2.92 | 0.52
64 | ERCC1 (UniProt P07992) | – | 0.741
65 | UniProt Q8IVG5 | 0.118 | –
66 | PRPF39 (UniProt Q86UA1) | -2.91 | 0.221

Full records, quoted from the list. Values in the order: melting temperature shift [1] [°C] | melting temperature shift [2] [°C]
GDAP2 (UniProt Q9NXN4) as listed: 2.92 | 0.52
UniProt Q969J3 as listed: – | -0.35
DPY19L1 (UniProt Q2PZI1) as listed: -3.24 | -1.07
MKRN2 (UniProt Q9H000) as listed: 2.35 | -0.473

Part of the list above, with tabs:
Row	Target	melting temperature shift [1] [°C]	melting temperature shift [2] [°C]
49	TXNRD1 (UniProt Q16881)	0.247	-1.03
50	UniProt Q8N5G0	–	2.1
51	CLN6 (UniProt Q9NWW5)	–	0.51

Carrying on.

Row | Target | melting temperature shift [1] [°C] | melting temperature shift [2] [°C]
67 | UniProt Q9Y5I4 | 0.78 | –
68 | CCT3 (UniProt P49368) | -0.433 | -0.328
69 | ACTR10 (UniProt Q9NZ32) | 0.267 | -0.202
70 | UniProt Q9UNP4 | 1.72 | 1.34
71 | CBR1 (UniProt P16152) | -0.724 | -0.000388
72 | UniProt P60709 | 0.597 | 0.187
73 | CHMP4C (UniProt Q96CF2) | -0.788 | –
74 | UniProt P34741 | – | 1.5
75 | UniProt Q9ULU4 | -0.455 | 1.45
76 | CAP1 (UniProt Q01518) | -0.07 | -0.133
77 | NUCB1 (UniProt Q02818) | – | 0.685
78 | LACTB2 (UniProt Q53H82) | -1.08 | 1.18
79 | AKAP1 (UniProt Q92667) | – | 1.73
80 | SFXN3 (UniProt Q9BWM7) | -1.1 | 0.985
81 | THOC5 (UniProt Q13769) | 2.84 | 0.658
82 | GGCT (UniProt O75223) | 1.97 | -1.09
83 | GABARAP (UniProt O95166) | – | -1.04
84 | EIF3E (UniProt P60228) | 0.138 | -0.684
85 | KDELC2 (UniProt Q7Z4H8) | 0.481 | 0.232
86 | TNRC6B (UniProt Q9UPQ9) | -2.22 | -0.879
87 | ATP5F1 (UniProt P24539) | -2.29 | 2.18
88 | UniProt P02787 | – | -2.51

Reference: the supplement of paper PMC10060354, “Discovery of a small molecule ligand of FRS2 that inhibits invasion and tumor growth” (Cellular Oncology, 2022)
